Laboratory results reported in PubChem BioAssay AID1487 (National Center for Advancing Translational Sciences (NCATS), 2009).
The list shows a part of the results. Further columns of the screen follow, without active or inactive calls. Compounds called inactive in the main read-out are mostly missing here. Words in brackets tell the shape of the fitted curve; partial curves, single points and poor fits give uncertain potencies.

Assay: qHTS Assay for Modulators of Lamin A Splicing
Details: HeLa LMNA splicing GFP/RFP minigene ratio, 48 h
Method in brief: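 S3 HeLa cells stably expressing lamin A-EGFP splicing minigene plus DsRed2, 600 cells/well, 48 h compound exposure at 37C. Laser-scanning cytometry; analysed as GFP (500-530 nm)/RFP (575-640 nm) total intensity ratio; 0.5% DMSO vehicle.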

[1] = measured here: GFP splicing reporter channel
[2] = measured here: RFP viability control channel

Row | Compound | AC50 [1] | AC50 [2]
1 | CC(=O)Nc1ccc(NC(=O)Cn2nc([N+](=O)[O-])c(Br)c2C)cc1 | 0.00447 µM [falling, full curve, poor fit] | –
2 | O=C(NCCSCc1ccccc1)c1ccc(Cl)c(S(=O)(=O)N2CCOCC2)c1 | 10 µM [rising, partial curve, poor fit] | 15.8 µM [rising, partial curve]
3 | C[C@H]1CC2[C@@H]3CCC4=CC(=O)C=C[C@]4(C)[C@@]3(Cl)[C@@H](O)C[C@]2(C)[C@@]1(O)C(=O)CO (some centres undefined) | 0.00562 µM [falling, full curve, poor fit] | 0.00447 µM [falling, full curve, poor fit]
4 | O=C(COC(=O)c1ccc(F)cc1F)Nc1ncccn1 | 0.282 µM [rising, full curve, poor fit] | –
5 | CCOc1ccc(OCC(=O)NCCS(=O)(=O)N2CCN(c3cccc(Cl)c3)CC2)cc1 | 2.51 µM [falling, full curve, poor fit] | 1.41 µM [falling, full curve, poor fit]
6 | COc1ccc(C(O)c2nccc3cc(OC)c(OC)cc23)cc1OC (centres undefined) | 0.00891 µM [falling, full curve, poor fit] | –
7 | O=C(COc1ccccc1-c1ccccc1)N/N=C/c1ccc2ccccc2c1 | – | 0.794 µM [rising, full curve]
8 | O=[N+]([O-])c1ccc(COc2ccccc2/C=N/O)cc1 | 12.6 µM [rising, single point] | 31.6 µM [rising, single point]
9 | CCC(C)c1ccc(NC(=O)C2CCN(c3ccc(C(F)(F)F)cn3)CC2)cc1 (centres undefined) | – | 11.2 µM [rising, partial curve, poor fit]
10 | Cn1c(=NC(=O)C2CCN(S(=O)(=O)c3cccs3)CC2)sc2ccccc21 | 4.47 µM [rising, partial curve] | 2.82 µM [rising, full curve]
11 | C=CCSc1nnc(CSc2nc3sc4c(c3c(=O)[nH]2)CCCC4)n1-c1ccccc1 | 15.8 µM [rising, single point] | 10 µM [rising, partial curve]
12 | CCn1c2ccccc2c2cc(NC(=O)COC(=O)c3ccccc3O)ccc21 | 15.8 µM [falling, partial curve, poor fit] | 11.2 µM [falling, partial curve]
13 | COC(=O)CSc1nnc(CNC(=O)c2cc(OC)cc(OC)c2)n1-c1ccc(F)cc1 | 0.0398 µM [falling, full curve, poor fit] | 0.00316 µM [falling, full curve, poor fit]
14 | CCCNC(=O)N1CCN(c2nc(C(C)C)c3c(c2C#N)CC(C)(C)OC3)CC1 | – | 6.31 µM [rising, partial curve]
15 | Cc1ccc(Sc2ncccc2COC(=O)Nc2c(C)cccc2C)cc1 | 35.5 µM [rising, single point] | 35.5 µM [rising, single point]
16 | CC1CCN(C(=O)c2cc3nc(-c4ccccc4)cc(-c4ccccc4)n3n2)CC1 | – | 22.4 µM [rising, single point]
17 | Cc1ccc(NC(=O)CN(C)CC(=O)Nc2ccccc2C#N)cc1 | – | 15.8 µM [falling, single point]
18 | O=C(COC(=O)c1cc2c(s1)CCC2)Nc1ccc(F)cc1 | – | 0.126 µM [falling, full curve]
19 | Cc1ccccc1NS(=O)(=O)c1ccc(N2CCCC2=O)cc1 | 17.8 µM [rising, single point] | 10 µM [rising, partial curve]
20 | C=C1C[C@@]23C[C@]1(O)CC[C@@H]2[C@]12C=C[C@@H](O)[C@](C)(C(=O)O1)[C@H]2[C@H]3C(=O)O | 3.16 µM [falling, single point] | 3.16 µM [falling, single point]
21 | Nc1nc(CN2CCN(c3ccccc3)CC2)nc(Nc2ccc(Cl)cc2)n1 | 22.4 µM [rising, partial curve, poor fit] | –
22 | Cn1cc(Br)c(C(=O)NNC(=O)Nc2ccccc2C(F)(F)F)n1 | – | 1.12 µM [falling, full curve, poor fit]
23 | CCCCNC(=O)CCC(=O)Nc1ccc2nc(N3CCC(C)CC3)cc(C)c2c1 | 11.2 µM [falling, single point] | –
24 | Cc1nn(Cc2ccc(Cl)cc2Cl)c(C)c1NC(=O)C1C2CCC(O2)C1C(=O)O (centres undefined) | – | 14.1 µM [rising, partial curve]
25 | O=C(/C=C/c1ccccc1)NCCc1ccc2c(c1)OCCO2 | – | 0.224 µM [rising, full curve, poor fit]
26 | CCCOc1ccc(C(=O)N2CCC(c3nc4ccccc4s3)CC2)cc1 | 10 µM [falling, partial curve, poor fit] | –
27 | COc1ccc(C(=O)N2CCCC(CCC(=O)NCc3ccc(F)c(F)c3)C2)cc1F (centres undefined) | 7.94 µM [falling, partial curve, poor fit] | 8.91 µM [falling, full curve, poor fit]

Row | Compound | AC50 [1] | AC50 [2]
28 | CCCCc1nc2ccccc2c(N)c1CCC (tested in a mixture with another compound) | – | 14.1 µM [rising, partial curve, poor fit]
29 | CCOC(=O)C1(CCOc2ccccc2)CCN(Cc2ccc(CO)o2)CC1 | 35.5 µM [falling, single point] | 12.6 µM [falling, single point]
30 | N#Cc1c(N2CCN(C(=O)c3ccco3)CC2)nc(-c2ccccc2)c2c1CCCC2 | – | 22.4 µM [rising, single point]
31 | CC(=N\O)/C(CN(C)C)=N/O | 1.58 µM [rising, full curve, poor fit] | –
32 | COc1ccc(/C=N/Nc2cc(C)nc(-n3nc(C)cc3C)n2)c(OC)c1 | 35.5 µM [rising, single point] | 35.5 µM [rising, single point]
33 | Cc1cc(C)cc(NC(=O)N2CCN(Cc3ccc4c(c3)OCO4)CC2)c1 | – | 11.2 µM [falling, partial curve, poor fit]
34 | Fc1ccc(CNC(=S)Nc2ccccc2Cl)cc1 | 0.398 µM [falling, single point] | 0.355 µM [falling, partial curve]
35 | COc1ccc2[nH]cc(CCNc3ncncc3-c3ccccc3C)c2c1 | 17.8 µM [falling, partial curve, poor fit] | –
36 | O=C(CSc1nnc(-c2ccccn2)n1-c1ccccc1)Nc1ccc2c(c1)OCO2 | 31.6 µM [rising, single point] | –
37 | CCCCCn1ccc(=O)c2c(C(F)(F)F)nccc21 | 14.1 µM [rising, partial curve] | 11.2 µM [rising, partial curve]
38 | C1=C(c2cccc3ccccc23)N2CCN=C2S1 | 12.6 µM [rising, single point] | 25.1 µM [rising, single point]
39 | Cc1c(C(=O)Nc2ccc(F)c(Cl)c2)sc2nc3n(c(=O)c12)CCC3 | – | 35.5 µM [rising, partial curve, poor fit]
40 | O=[N+]([O-])c1cc(C(F)(F)F)ccc1NCCCCNS(=O)(=O)c1ccc(Cl)cc1 | – | 17.8 µM [rising, partial curve]
41 | CC(Sc1nc2ccccc2s1)C(=O)Nc1ccc2c(c1)OCO2 (centres undefined) | – | 20 µM [rising, single point]
42 | COc1ccccc1N1CCN(c2ncnc3c2cnn3-c2ccc(C)cc2)CC1 | 11.2 µM [falling, partial curve] | 0.00891 µM [falling, full curve, poor fit]
43 | COc1ccc(C2=NOC(C(=O)NCc3cccs3)C2)cc1 (centres undefined) | – | 7.94 µM [rising, partial curve, poor fit]
44 | O=C(CSc1nc(-c2ccco2)cc(C(F)(F)F)n1)NCCCn1ccnc1 | – | 2.82 µM [rising, partial curve]
45 | COc1ccc(C)cc1N(C(=O)c1ccccc1)c1nc2ccccc2s1 | – | 35.5 µM [rising, partial curve, poor fit]
46 | Cn1nnnc1Sc1ncnc2scc(-c3ccccc3)c12 | 10 µM [falling, partial curve] | 14.1 µM [rising, partial curve]
47 | CSc1ccc(C(=O)C2CCCN(S(=O)(=O)N(C)C)C2)cc1 (centres undefined) | 0.0398 µM [falling, full curve, poor fit] | –
48 | Cc1c(C(=O)Nc2ccc(Oc3ccccc3)cc2)sc2nc3n(c(=O)c12)CCC3 | 35.5 µM [rising, single point] | 35.5 µM [rising, single point]
49 | COC(=O)[C@@H]1CC[C@H](C)[C@@H](c2ccc(C)cc2)N1C(=O)c1ccc(/C=N/O[C@@H](C)CN2CCCCc3nc(C)c(C)cc32)cc1 | 6.31 µM [rising, partial curve] | –
50 | CCCN1CCC(NC(=O)CCc2nnc(Cc3cc(OC)ccc3OC)o2)CC1 | – | 0.00447 µM [falling, full curve, poor fit]
51 | Nc1ccc(C(=O)Nc2nccs2)cc1 | 0.0631 µM [falling, full curve, poor fit] | 0.0316 µM [falling, full curve, poor fit]
52 | CC(C)Sc1nc2ccc(Br)cc2[nH]1 | – | 11.2 µM [falling, partial curve]
53 | O=C1c2ccccc2C(=O)N1CCc1csc(-c2ccc(F)cc2)n1 | – | 12.6 µM [rising, single point]

Part of the list above in order of count of non-hydrogen atoms, descending:
Row | Compound | AC50 [1] | AC50 [2]
40 | O=[N+]([O-])c1cc(C(F)(F)F)ccc1NCCCCNS(=O)(=O)c1ccc(Cl)cc1 | – | 17.8 µM [rising, partial curve]
35 | COc1ccc2[nH]cc(CCNc3ncncc3-c3ccccc3C)c2c1 | 17.8 µM [falling, partial curve, poor fit] | –
47 | CSc1ccc(C(=O)C2CCCN(S(=O)(=O)N(C)C)C2)cc1 (centres undefined) | 0.0398 µM [falling, full curve, poor fit] | –

A few values from the entries so far.
In AC50 [1], CCOC(=O)C1(CCOc2ccccc2)CCN(Cc2ccc(CO)o2)CC1 shows 35.5 µM [falling, single point]
In AC50 [2], COc1ccc(C2=NOC(C(=O)NCc3cccs3)C2)cc1 (centres undefined) shows 7.94 µM [rising, partial curve, poor fit]
